The list shows a part of the results.

Chains of the proteins cited; added tags and fusions are not shown.
UniProt Q0JBA9, entry or part of it: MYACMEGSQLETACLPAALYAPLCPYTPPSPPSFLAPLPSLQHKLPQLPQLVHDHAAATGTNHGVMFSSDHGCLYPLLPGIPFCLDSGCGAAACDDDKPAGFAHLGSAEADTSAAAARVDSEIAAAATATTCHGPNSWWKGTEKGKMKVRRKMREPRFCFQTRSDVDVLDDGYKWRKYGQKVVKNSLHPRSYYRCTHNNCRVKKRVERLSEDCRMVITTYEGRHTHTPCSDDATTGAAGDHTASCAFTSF

The source of these data is paper PMC7819943, “Rice protein-binding microarrays: a tool to detect cis-acting elements near promoter regions in rice”.

In the assay the target is OsWRKY34 (Oryza sativa, UniProt Q0JBA9 1-250). Description: protein-binding microarray (RPBM); PBS, 2% BSA, 51.3 ng/ul salmon testes DNA, 50 uM zinc acetate, 200 nM TF, 25 C, 1 h; high values mean tight binding. Conditions: protein: recombinant; tags: N-terminal polyhistidine and DsRed monomer fusion (pET32a); label: CyDye5-dUTP incorporated in the synthesized complementary strand; 3' TTTTT single-stranded linker to array surface; dsDNA, one strand shown. The procedure, abridged:
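Per-feature fluorescence intensity (arbitrary units), read on an Axon 4000B scanner, is the binding signal. Transcription factors carrying an N-terminal polyhistidine tag and DsRed fusion were expressed in E. coli BL21-CodonPlus and purified on Ni–NTA. A custom Agilent array, made double-stranded by primer extension with Cy5-dUTP and blocked with 2% BSA, was incubated with 200 nM protein in PBS, 2% BSA, salmon testes DNA and 50 µM zinc acetate at 25 °C for 1 h and then washed.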
On to “CGCTGCCTTCCCCGTTCCCGGTCGCCGTCGCCACCGCCGGCGGAGTCACCTAGTGCAG”, for which the binding signal is 10300 fluorescence intensity (a.u.).

Consider “GTGCTGCCTCTCGTTCATCTCCGGCCTCACCTAATAATGACGGAGTCACCTAGTGCAG”, for which the binding signal is 8520 fluorescence intensity (a.u.).

Consider “TCCCATCGCCGGCCACTATTCCTCCCCTCCACTTCAATCGCGGAGTCACCTAGTGCAG”, for which the binding signal is 8200 fluorescence intensity (a.u.).

For the sequence “TGGGTTCCACATATTTTTTTTAATTTTGTTCTTATTCTAACGGAGTCACCTAGTGCAG”, the binding signal is 8800 fluorescence intensity (a.u.).

As for “TACATACATAGCTGTGTTCGACACTCTTTTTCCCGACCCACGGAGTCACCTAGTGCAG”, the binding signal was 9500 fluorescence intensity (a.u.).

Consider “GACAACCCTAAACGCCGTTCTTATAGTGTTGACTCAGCGTCGGAGTCACCTAGTGCAG”, for which the binding signal is 10100 fluorescence intensity (a.u.).

With “ATACACACATATCCGCGCCATTATAAATTTGACAGCATTTCGGAGTCACCTAGTGCAG”, the binding signal is 10500 fluorescence intensity (a.u.).

With “CTATTTAAGCTGATGGAGAAGGGTGGGCAATTCACTTTATCGGAGTCACCTAGTGCAG”, the binding signal was 10900 fluorescence intensity (a.u.).

As for “TAGGTCAGTTCGTTCGCTTTACTTCCTGATTTCGGAAATTCGGAGTCACCTAGTGCAG”, the binding signal was 9460 fluorescence intensity (a.u.).

Take “AAACTGTTTAGCTGAGCTCTAGTTTTATCTTAATCTTAGACGGAGTCACCTAGTGCAG”: the binding signal was 8380 fluorescence intensity (a.u.).

For “CCTTCTCGCCGCACTCTGACATGATGTTCGCCGCAGCGAACGGAGTCACCTAGTGCAG”, the binding signal was 8690 fluorescence intensity (a.u.).

Consider “CTTTCTTGCAATTTTGGTCTTCTTTCCTTTTGATTTGGTTCGGAGTCACCTAGTGCAG”, for which the binding signal was 9200 fluorescence intensity (a.u.).

As for “ATATCTTGTGTTCCTTGTTGTATACGTTGGTATACCCCTCCGGAGTCACCTAGTGCAG”, the binding signal is 8580 fluorescence intensity (a.u.).

Take “AGACGTTTTGATTTTGGTCAAAGTTAAACTGTTTCAAGTTCGGAGTCACCTAGTGCAG”: the binding signal was 8120 fluorescence intensity (a.u.).

Take “GATGTATAGTAAAATGTGAACTTTTTTTTATGGTTTTTTCCGGAGTCACCTAGTGCAG”: the binding signal was 8910 fluorescence intensity (a.u.).

For “AATATATACCACGTGCCGGAAACTCAGACTTAACGGACATCGGAGTCACCTAGTGCAG”, the binding signal is 8790 fluorescence intensity (a.u.).

As to “ATGATTTTCTTTTCATGCCCGTACTTAATTTACTGCAGTACGGAGTCACCTAGTGCAG”, the binding signal was 9770 fluorescence intensity (a.u.).

On to “CCATTTCTAGCTAGCTATACGATCGATCTATACATATATACGGAGTCACCTAGTGCAG”, for which the binding signal was 11700 fluorescence intensity (a.u.).

In the case of “GTGGGTCCACTTGCTACACATACCACCCCACTTAAACTTTCGGAGTCACCTAGTGCAG”, the binding signal was 8640 fluorescence intensity (a.u.).

Turning to “TAGAAGACCCCGAGTTAGACCTAATAGTTCGGCCCATATACGGAGTCACCTAGTGCAG”, the binding signal is 8610 fluorescence intensity (a.u.).

Regarding “GGGCACTGTTTTTGTTTATTGGACTCCAGTCGCAAGTTCGCGGAGTCACCTAGTGCAG”, the binding signal was 9030 fluorescence intensity (a.u.).

Take “GAGTTTTACTTCAGTGGCAATTTCTTTTATATAACTGGTTCGGAGTCACCTAGTGCAG”: the binding signal was 8060 fluorescence intensity (a.u.).

On to “CACCTCGTTTTGCGTAAAACACTTGATCTTGATCTTTATCCGGAGTCACCTAGTGCAG”, for which the binding signal is 11100 fluorescence intensity (a.u.).

Take “CGCCGCGGCCCCGTCACACCTCATCCTCTTCGCTTGGCCTCGGAGTCACCTAGTGCAG”: the binding signal was 8740 fluorescence intensity (a.u.).

Turning to “CAAAGCTTTGTTCTTCTTGCTCTTCTTATACTCGAGCAGCCGGAGTCACCTAGTGCAG”, the binding signal is 8230 fluorescence intensity (a.u.).

Take “ACCCTGATATCATATTCGTATTCGTATTTGGGAGAAAATACGGAGTCACCTAGTGCAG”: the binding signal is 8080 fluorescence intensity (a.u.).

Turning to “GCCGTGCTCTGCCCCTGTGCTACATAACCAGCTTCCACTCCGGAGTCACCTAGTGCAG”, the binding signal was 9350 fluorescence intensity (a.u.).

“AAATGGTTTATTATCTGACTCATACAACATGTGCTGCCAACGGAGTCACCTAGTGCAG”: the binding signal was 9500 fluorescence intensity (a.u.).

Take “TCGCCTTTCGCCCACCGGCCTCTTTTGGAAAATGTCGCACCGGAGTCACCTAGTGCAG”: the binding signal was 9880 fluorescence intensity (a.u.).

As for “GGTTCTTACTGTTGTACAGTTACTATAGGCCGACGTACGGCGGAGTCACCTAGTGCAG”, the binding signal was 10300 fluorescence intensity (a.u.).

Take “CCAGTCCCAGCCACCCCACCAACACCAAGCTTTCGCGTCTCGGAGTCACCTAGTGCAG”: the binding signal is 10400 fluorescence intensity (a.u.).

Consider “CTGCCGCTGTTGGATCTCCACTGATTCCATCGATTCCACCCGGAGTCACCTAGTGCAG”, for which the binding signal is 8940 fluorescence intensity (a.u.).

Regarding “AGAACTTCTCGTCTTCTCAATTTGTTCTTTTGGTATTCTACGGAGTCACCTAGTGCAG”, the binding signal is 9350 fluorescence intensity (a.u.).

As to “TGTTGACTCATGTAACTTTACCCTTCTCTTAGGCCGTGTTCGGAGTCACCTAGTGCAG”, the binding signal was 8140 fluorescence intensity (a.u.).

Take “GCTGTCTGTACATTTTTTCGTTTTTGCTGGCATGCTTTCTCGGAGTCACCTAGTGCAG”: the binding signal was 9740 fluorescence intensity (a.u.).

On to “ATGTGGGTGTGTGAATGACAAATGGGTCCCACGTATAACTCGGAGTCACCTAGTGCAG”, for which the binding signal was 9700 fluorescence intensity (a.u.).

“ATATACACGTGCACACACTCAACCTATCACATGCATCTGACGGAGTCACCTAGTGCAG”: the binding signal is 9090 fluorescence intensity (a.u.).

In the case of “CCCTACTTTGTGTGTGTTTTACCGTACCACACCACAAAATCGGAGTCACCTAGTGCAG”, the binding signal is 8980 fluorescence intensity (a.u.).

“AGCCACCGCCGGCCACATCCCTCGCACGTCTGCGCTCGCCCGGAGTCACCTAGTGCAG”: the binding signal was 9300 fluorescence intensity (a.u.).

Turning to “TATGTTCGGTATCGTATTAAATCTACTCCTATTTGTACCTCGGAGTCACCTAGTGCAG”, the binding signal is 8570 fluorescence intensity (a.u.).

On to “ACGTCTCATTCTTCTCAAACACACGACGTCGCCAAAAGCACGGAGTCACCTAGTGCAG”, for which the binding signal is 8380 fluorescence intensity (a.u.).

“ATGGTCTCACATGTCATACACATATTCCGTCTTGGAGTTCCGGAGTCACCTAGTGCAG”: the binding signal is 11200 fluorescence intensity (a.u.).
